Data published in patent US11905253B2, “Compounds and pharmaceutical compositions for reducing CD95-mediated cell motility” (INSTITUT NATIONAL DE LA SANTE ET DE LA RECHERCHE MEDICALE …, priority 2018, dated 2024).
pIC50: −log10 of the molar value. For some of these results: At least one read-out could not be matched to a standard name with certainty. Some entries repeat one wording, which the source may state once for all of them. For some of these results: At least one structure is not confirmed: it was looked up by name or label, or the drawing left a doubt. Some of these results come from one statement about several compounds together.

Key:
[1] = test system: CD95/PLCγ1 interaction (SH3-PLCg1/CID-CD95); assay: Renilla luciferase protein-fragment complementation assay (PCA), SH3-PLCγ1-F1 / CID-CD95-F2; format: cell-based, human; details: comparison of the IC50 values of Table 1
Protocol: (§1) A. SH3—PLCγ1-F1 or DD-FADD-F1 (inset) was co-transfected into HEK293T cells along with whole CID-CD95-F2 or DD-CD95-F2 (inset). After 24 h, cells were exposed for 4 h to different compounds according to the invention at different concentrations and luminescence was assessed. The tested compounds were the compounds number 2, 3, 4, 5, 6, 7, 10, 11, 13 and 14.
(§2) F1 corresponds to the N-terminal domain of Renilla luciferase enzyme split into two fragments (F1 and F2, F2 being the C-terminal domain—see Stefan, E. et al. Proc Natl Acad Sci USA 104, 16916-21 (2007)). These F1 and F2 domains were co-expressed in HEK cells, whereupon the interaction between CD95-CID and PLCγ1, or CD95-DD and DD-FADD, allowed protein refolding and subsequent recovery of Renilla luciferase activity.
(§3) CID corresponds to amino acids 175 to 210 of CD95; DD corresponds to amino acids 210 to 303 of CD95.
(§4) Renilla luciferase-based protein-fragment complementation assay (PCA): HEK293T cells were electroporated with 10 μg DNA using a BTM-830 electroporation generator (BTX Instrument Division, Harvard Apparatus). Transfected cells were cultured for 24 h prior to PCA analyses as previously described (Poissonnier, A. et al., Immunity. 2016, 45, 209-223). Briefly, transfected cells (10^6) were washed and resuspended in 100 μL PBS and placed in OptiPlate-96 plates (Perkin-Elmer, Waltham, Mass., USA). Coelenterazine-h (5 μM, Sigma-Aldrich) was added to each well and Renilla luciferase activity was monitored for the first 10 seconds using Infinite200Pro (Tecan, Männedorf, Switzerland).

[2] = biological target: T1, CD95/PLCγ1 interaction (SH3-PLCg1/CID-CD95) (Homo sapiens, UniProt P19174); assay: as above; format: cell-based; details: comment on Table 1
T1 construct: SH3—PLCγ1-F1 or DD-FADD-F1 (inset) was co-transfected into HEK293T cells; expressed in transfected cells; host or cells: HEK293T
T1 sequence (P19174 791-851): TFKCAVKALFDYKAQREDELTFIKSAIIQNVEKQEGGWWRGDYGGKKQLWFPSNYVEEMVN
Protocol: as §1, §2, §3, §4

[3] = test system: CD95-mediated Ca2+ response; assay: CD95-mediated Ca2+ response in mouse PBLs (Fluo2 LR-AM), AUC (FIG. 3B, FIG. 4); format: cell-based; details: 1 h pre-treatment, cl-CD95L 100 ng/mL, read-out: IC50, CD95-mediated Ca2+ response (AUC, intracellular Ca2+ concentration)
binding of PLCγ1 to CD95 = biological target: T2, binding of PLCγ1 to CD95 (Homo sapiens, UniProt P19174); assay: CD95 immunoprecipitation in HEK cells transfected with CD95 and PLCγ1, stimulated with cl-CD95L (FIG. 3A); format: cell-based; details: 50 μM, 1 h pre-incubation, cl-CD95L 100 ng/mL 5 min; FIGS. 3A and 3B
T2 construct: expressed in transfected cells; host or cells: HEK cells
T2 sequence (P19174 1-1290): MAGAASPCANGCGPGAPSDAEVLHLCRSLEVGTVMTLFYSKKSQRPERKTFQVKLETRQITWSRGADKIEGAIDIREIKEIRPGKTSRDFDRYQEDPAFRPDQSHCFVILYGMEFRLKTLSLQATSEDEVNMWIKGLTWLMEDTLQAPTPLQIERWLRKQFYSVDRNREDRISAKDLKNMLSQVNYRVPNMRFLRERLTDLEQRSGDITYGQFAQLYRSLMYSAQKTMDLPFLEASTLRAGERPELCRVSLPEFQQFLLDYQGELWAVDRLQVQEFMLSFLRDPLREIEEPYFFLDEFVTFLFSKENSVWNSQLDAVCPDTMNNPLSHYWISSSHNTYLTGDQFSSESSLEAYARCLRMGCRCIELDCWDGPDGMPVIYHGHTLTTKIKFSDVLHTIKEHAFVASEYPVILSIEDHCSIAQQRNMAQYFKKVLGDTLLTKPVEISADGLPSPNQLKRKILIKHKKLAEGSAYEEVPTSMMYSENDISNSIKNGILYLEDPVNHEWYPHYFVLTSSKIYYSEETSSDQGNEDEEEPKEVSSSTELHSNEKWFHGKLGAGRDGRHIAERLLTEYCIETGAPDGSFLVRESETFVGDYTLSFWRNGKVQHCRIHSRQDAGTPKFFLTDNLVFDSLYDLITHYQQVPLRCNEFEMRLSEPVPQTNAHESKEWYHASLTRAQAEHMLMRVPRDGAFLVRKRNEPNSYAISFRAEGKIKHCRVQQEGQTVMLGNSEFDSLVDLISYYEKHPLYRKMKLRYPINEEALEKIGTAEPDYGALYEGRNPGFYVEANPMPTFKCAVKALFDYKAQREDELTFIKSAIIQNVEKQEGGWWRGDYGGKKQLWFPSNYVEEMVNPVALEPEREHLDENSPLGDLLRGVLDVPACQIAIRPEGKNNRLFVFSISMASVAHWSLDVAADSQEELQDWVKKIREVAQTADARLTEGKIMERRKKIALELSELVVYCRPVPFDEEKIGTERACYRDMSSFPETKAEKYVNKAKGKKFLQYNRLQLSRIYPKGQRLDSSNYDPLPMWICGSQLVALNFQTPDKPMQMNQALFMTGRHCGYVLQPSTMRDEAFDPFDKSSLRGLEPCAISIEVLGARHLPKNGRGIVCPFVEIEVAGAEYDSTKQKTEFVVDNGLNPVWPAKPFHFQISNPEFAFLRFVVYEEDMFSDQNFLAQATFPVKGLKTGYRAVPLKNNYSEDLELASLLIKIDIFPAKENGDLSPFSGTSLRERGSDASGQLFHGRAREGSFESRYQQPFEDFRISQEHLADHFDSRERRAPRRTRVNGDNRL

Structure (SMILES): CC(O)C(N)C(=O)NCCN(C(=O)CCS)C(Cc1c[nH]c2ccccc12)C(=O)NCCN(C(=O)CCCCCN)C(Cc1cnc[nH]1)C(=O)NCCN(C(=O)CCCCNC(=N)N)C(CCCCN)C(N)=O (stereo not shown) [Compound 7]
- specificity for the interaction CD95/PLCγ1 compared to CD95/FADD [1]: particularly specific
- IC50 regarding the CD95/PLCγ1 interaction, in words [2]: particularly low IC50 values
- pIC50 [3]: 7.42
- binding of PLCγ1 to CD95 in cells exposed to cl-CD95L (binding of PLCγ1 to CD95): abrogate binding of PLCγ1 to CD95
